Our source for the Inhibition values is ChEMBL document CHEMBL4296183, “CO-ADD screening of NIH NCI Natural Product Set III” (2020).

Some of the results follow. Entries with a potency or affinity are not part of this list.

The test system of this test is Pseudomonas aeruginosa. Conditions: Concentration 20 uM; ASSAY_TEST Inhibition of Bacterial Growth; detection method Absorption (OD600); MEDIA CAMHB; plate type 384well; NBS; CORNING #3640; time 18 hr.
`COc1c2occc2c(OC)c2c(=O)cc(C)oc12` [KHELLIN]: the Inhibition – broadly, the drop in the measured response relative to a control, in per cent – is reported as 13.85%.

Turning to `CC1CC(O)C2C3(C)CCCC2(COC3=O)C12CCC1(CCOC1=O)O2` (stereo not given), the Inhibition is on record as 4.63%.

Regarding `COc1ccc(C2CC(=O)c3c(O)cc(OC4OC(CO)C(O)C(O)C4OC4OC(C)C(O)C(O)C4O)cc3O2)cc1O` (stereo not given), the Inhibition worked out at 9.41%.

With `CC(=O)O.COc1ccc2c(=O)oc3c(OC)cc(CCN(C)C)c4c(=O)oc1c2c34`, the Inhibition stood at 10.84%.

`CC1(C)CCCC2(C)C3=C(CCC12)C(=O)OC3` (stereo not given): the Inhibition stood at 10.4%.

For `COC(=O)[C@]1(C)CCC[C@]2(C)C3=CC(=O)[C@@]4(C(C)C)O[C@H]4[C@]3(O)CC[C@@H]12`, the Inhibition was found to be 13.48%.

Turning to `CCC1NC(=O)C(NC(=O)c2ncccc2O)C(C)OC(=O)C(c2ccccc2)NC(=O)C2CC(=O)CCN2C(=O)C(Cc2ccccc2)N(C)C(=O)C2CCCN2C1=O` (stereo not given), the Inhibition came out at 3.82%.

For `CCCCCC[C@H]([C@H](C)O)n1cnc2c(N)ncnc21.Cl`, the Inhibition was determined as 10.53%.

For `COc1c2occc2cc2ccc(=O)oc12` [METHOXSALEN], the Inhibition is 12.61%.

On to `CCCCCCCCCCCCCCCCCCOCC(O)CO` (stereo not given) [BATILOL], for which the Inhibition came out at 3.22%.

On to `COC(=O)NC1C(C)OC(OC2C/C=C(/C)C3C=CC4C(OC5CC(OC6CCC(OC7CC(O)C(OC8CCC(O)C(C)O8)C(C)O7)C(C)O6)C(OC(C)=O)C(C)O5)C(C)CC(C)C4C3(C)/C(O)=C3/C(=O)OC4(CC(C=O)=CC(O)C4/C=C\2C)C3=O)CC1(C)[N+](=O)[O-]` (stereo not given), for which the Inhibition is recorded as 6.98%.

Turning to `O=c1oc2c(O)c(O)cc3c(=O)oc4c(O)c(O)cc1c4c23` [ELLAGIC ACID], the Inhibition is -0.73%.

In the case of `COc1cc([C@@H]2c3cc4c(cc3[C@@H](OC3OC5CO[C@@H](c6cccs6)OC5C(O)C3O)[C@H]3COC(=O)[C@H]23)OCO4)cc(OC)c1O` (stereo not given in full), the Inhibition is listed as -1.34%.

Regarding `C[C@@H]1C(=O)C[C@H]2C(C)(C)CCC[C@]2(C)[C@@]1(O)CCc1ccoc1`, the Inhibition came out at 0.26%.

For the compound `CCCCCc1cc(O)cc2c1Oc1cc(O)cc(C(=O)CCCC)c1C(=O)O2`, the Inhibition was 10.29%.

For the compound `CC(=O)CCCCn1c(=O)c2c(ncn2C)n(C)c1=O` [PENTOXIFYLLINE], the Inhibition is on record as 8.89%.

For `Cc1cc2nc3[nH]c(=O)[nH]c(=O)c3nc2cc1C` [LUMICHROME], the Inhibition was 11.55%.

`CN1CCc2cc3c(cc2C(=O)Cc2ccc4c(c2C1)OCO4)OCO3.Cl` [PROTOPINE HYDROCHLORIDE]: the Inhibition is on record as 11.77%.

Regarding `COC(=O)C1C(O)CCC2CN3CCc4c([nH]c5ccccc45)C3CC21` (stereo not given), the Inhibition is listed as 11.28%.

As to `CC1=C2[C@H]3OC(=O)[C@@H](C)[C@@H]3CC[C@@]2(C)C=C/C1=N\O`, the Inhibition was 14.43%.

As to `COc1cc(C)c2c(c1C=O)Oc1c(c(C)c(O)c3c1C(O)OC3=O)OC2=O` (stereo not given) [STICTIC ACID], the Inhibition is 8.47%.

On to `CC(C)=CC(=O)OC1C2C(C)C(=O)OC2C(O)C(C)C2C=CC(=O)C21C` (stereo not given), for which the Inhibition was 5.57%.

On to `CC(=O)Oc1ccc2ccc(=O)oc2c1OC(C)=O`, for which the Inhibition was determined as 14.37%.

With `COc1c2c(cc3c1[C@@H]1Oc4c(ccc(O)c4CC=C(C)C)[C@@H]1CO3)OC(C)(C)C=C2`, the Inhibition was -1.22%.

On to `COC(=O)[C@@H]1[C@H]2C[C@@H]3c4[nH]c5ccccc5c4CCN3C[C@@H]2CC[C@@H]1O`, for which the Inhibition stood at 12.07%.

As to `CC(C)c1ccc2c(c1)CC[C@H]1[C@](C)(C(=O)O)CCC[C@]21C` [DEHYDROABIETIC ACID], the Inhibition is recorded as 10.08%.

Regarding `CC(C)CC1NC(=O)C(C(C)C)NC(=O)CC(C)COC(=O)C(CC(C)C)N(C)C(=O)C(C(C)C)NC(=O)C(C(C)C)OC1=O` (stereo not given), the Inhibition amounted to 3.95%.

Regarding `CC(=O)C1CCCC(=O)/C=C/C(=O)O1` (stereo not given), the Inhibition was found to be 3.65%.

On to `COc1ccc2c(c1OC)C(=O)O[C@@H]2[C@H]1c2c(cc3c(c2OC)OCO3)CCN1C` [NOSCAPINE], for which the Inhibition is reported as 4.16%.

As for `COc1cc2c(c(OC)c1OC)-c1ccc(OC)c(=O)cc1[C@@H](NC(C)=O)CC2` [COLCHICINE], the Inhibition amounted to 8.5%.

`COC(=O)C1C2CC3c4[nH]c5cc(OC)ccc5c4CCN3CC2CC(OC(=O)CCc2cc(OC)c(OC)c(OC)c2)C1OC` (stereo not given): the Inhibition amounted to 8.3%.

As for `C=C1C(=O)OC2CC(C)C3(O)CCC(=O)C3(C)CC12` (stereo not given), the Inhibition is reported as 11.6%.

Regarding `CCC1OC(=O)C(C)C(OC2CC(C)(O)C(O)C(C)O2)C(C)C(O)C(C)(O)CC(C)C(=O)C(C)C(O)C1C` (stereo not given), the Inhibition was 8.55%.

As to `COc1cc2c3c(c4ccc(OC)c(OC)c4c2cc1OC)CN1CCC[C@@H]1C3` [TYLOCREBRINE], the Inhibition is reported as 9.43%.

For the compound `CC1(C)CC23C4COC(=O)C2CCC1C3CC4=O` (stereo not given), the Inhibition is reported as -4.04%.

With `CC(C)=CCc1c2c(c3occ(-c4ccc(O)c(O)c4)c(=O)c3c1O)C=CC(C)(C)O2` [POMIFERIN], the Inhibition is reported as -2.68%.

In the case of `CC[C@]1(O)C[C@H]2CN(CCc3c([nH]c4ccccc34)[C@@](C(=O)OC)(c3cc4c(cc3OC)N(C=O)[C@H]3[C@@](O)(C(=O)OC)[C@H](OC(C)=O)[C@]5(CC)C=CCN6CC[C@]43[C@@H]65)C2)C1.O=S(=O)(O)O` [VINCRISTINE SULFATE], the Inhibition is 1.62%.

Take `C=C1C(=O)OC2CC3(C)CCCC(C)C3=CC12` (stereo not given): the Inhibition is recorded as 7.79%.

As to `C/C=C/c1cc2c(c(=O)o1)C(=O)[C@@H](O)[C@H](C)O2`, the Inhibition was 9.46%.

With `COc1c(O)cc2oc3cc(O)c(CC=C(C)C)c(O)c3c(=O)c2c1CC=C(C)C` [MANGOSTIN], the Inhibition is -1.39%.

Take `COc1cc(/C=C/C(=O)CC(=O)/C=C/c2ccc(O)c(OC)c2)ccc1O` [CURCUMIN]: the Inhibition is given as 15.02%.

For `C=C1C(=O)OC2CC1C(O)C/C(C)=C/CC/C(C)=C/C(O)CC2C` (stereo not given), the Inhibition is reported as 11.12%.

Regarding `COC1/C=C\C=C(/C)C(=O)NC2=CC(=O)C(N)=C(CC(C)CC(OC)C(O)C(C)/C=C(\C)C1OC(N)=O)C2=O` (stereo not given), the Inhibition came out at 0.44%.

For the compound `CC1(C)C(=O)N2c3ccccc3C3(CC(N4C(=O)c5ccccc5C4=O)C(=O)O3)C2N1C(=O)OCc1ccccc1` (stereo not given), the Inhibition is listed as 4.43%.

Consider `CCCCCCCCCCCCCCCC(=O)O[C@@H]1[C@@H](C)[C@@]2(O)[C@@H](C=C(CO)C[C@]3(O)C(=O)C(C)=C[C@@H]23)[C@H]2[C@]1(OC(C)=O)[C@]2(C)CO`, for which the Inhibition stood at 9.28%.

As to `O=c1oc2cc(O)ccc2c2oc3cc(O)ccc3c12` [COUMESTROL], the Inhibition is on record as 5.32%.

As to `C=C1C(=O)O[C@@H]2[C@H]3O[C@]3(C)CC/C=C(\C)CC[C@@H]12`, the Inhibition is given as 8.5%.

Consider `O=C1c2cc(O)c(O)cc2O[C@H](c2ccc(O)c(O)c2)[C@H]1O`, for which the Inhibition is listed as 16.81%.

In the case of `O=C(O)CCCCCCC[C@@H](O)[C@@H](O)CCCCCCO`, the Inhibition turned out to be 11.37%.

Turning to `COc1ccc2c(c1)O[C@H]1c3ccc(O)cc3OC[C@@H]21`, the Inhibition was 7.57%.
